Assay results: the supplement of paper PMC12823440, “Inhibitors supercharge kinase turnover through native proteolytic circuits” (Nature, 2025)
Counter-ions that a name gives are not always drawn. This is one part of the list. Hit calls seldom repeat between salt and free forms of one compound.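 In K562 cells expressing nanoluciferase-fused kinases, luminescence was recorded at 4 h intervals between 2 and 18 h, normalized as percent of control with DMSO at 100% and a positive control at 0%. A significant (2 sigma) signal drop marks a time point as decreased. The authors' rule for a hit is not shown and takes in more than the number of time points.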

By UniProt entry, the sequences of proteins in these tests, tags left out. Where a name states a change or a piece, a line headed by the entry shows the natural chain unless it says otherwise.
UniProt Q96KB5: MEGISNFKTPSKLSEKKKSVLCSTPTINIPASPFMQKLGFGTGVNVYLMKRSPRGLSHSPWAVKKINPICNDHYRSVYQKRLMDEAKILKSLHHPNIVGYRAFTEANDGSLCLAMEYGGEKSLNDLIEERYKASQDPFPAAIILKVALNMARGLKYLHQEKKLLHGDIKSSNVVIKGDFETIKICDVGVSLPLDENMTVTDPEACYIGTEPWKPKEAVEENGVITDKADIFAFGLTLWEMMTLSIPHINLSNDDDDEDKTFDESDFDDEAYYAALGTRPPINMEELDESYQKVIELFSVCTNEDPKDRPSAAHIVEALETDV
UniProt P09619, whole entry: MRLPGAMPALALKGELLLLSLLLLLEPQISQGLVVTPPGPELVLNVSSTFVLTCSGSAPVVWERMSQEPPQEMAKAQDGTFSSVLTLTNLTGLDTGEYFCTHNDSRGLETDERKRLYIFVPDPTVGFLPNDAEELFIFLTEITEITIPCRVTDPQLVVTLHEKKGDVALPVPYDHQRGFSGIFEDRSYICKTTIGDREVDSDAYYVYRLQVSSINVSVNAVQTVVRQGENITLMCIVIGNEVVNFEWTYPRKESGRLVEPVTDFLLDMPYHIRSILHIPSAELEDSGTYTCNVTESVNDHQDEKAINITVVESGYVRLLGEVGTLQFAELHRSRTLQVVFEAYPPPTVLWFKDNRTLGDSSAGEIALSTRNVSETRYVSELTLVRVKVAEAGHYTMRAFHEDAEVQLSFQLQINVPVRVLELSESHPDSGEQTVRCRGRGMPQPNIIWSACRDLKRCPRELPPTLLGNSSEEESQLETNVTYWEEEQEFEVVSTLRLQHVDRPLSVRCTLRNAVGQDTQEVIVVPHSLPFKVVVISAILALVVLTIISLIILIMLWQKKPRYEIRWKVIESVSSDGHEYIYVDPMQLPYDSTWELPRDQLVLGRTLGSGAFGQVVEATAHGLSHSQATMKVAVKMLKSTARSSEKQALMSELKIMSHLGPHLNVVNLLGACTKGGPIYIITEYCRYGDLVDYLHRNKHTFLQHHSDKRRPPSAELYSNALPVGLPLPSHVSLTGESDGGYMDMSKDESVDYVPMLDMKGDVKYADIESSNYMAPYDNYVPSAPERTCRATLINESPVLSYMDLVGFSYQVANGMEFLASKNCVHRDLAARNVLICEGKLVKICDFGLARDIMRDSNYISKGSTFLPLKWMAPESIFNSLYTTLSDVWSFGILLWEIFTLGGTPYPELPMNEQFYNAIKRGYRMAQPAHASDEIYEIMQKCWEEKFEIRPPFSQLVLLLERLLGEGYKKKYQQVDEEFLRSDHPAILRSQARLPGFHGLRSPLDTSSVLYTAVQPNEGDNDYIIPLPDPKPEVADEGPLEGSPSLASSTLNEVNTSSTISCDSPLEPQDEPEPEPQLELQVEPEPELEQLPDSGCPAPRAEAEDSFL
UniProt Q15118, whole entry, looked up: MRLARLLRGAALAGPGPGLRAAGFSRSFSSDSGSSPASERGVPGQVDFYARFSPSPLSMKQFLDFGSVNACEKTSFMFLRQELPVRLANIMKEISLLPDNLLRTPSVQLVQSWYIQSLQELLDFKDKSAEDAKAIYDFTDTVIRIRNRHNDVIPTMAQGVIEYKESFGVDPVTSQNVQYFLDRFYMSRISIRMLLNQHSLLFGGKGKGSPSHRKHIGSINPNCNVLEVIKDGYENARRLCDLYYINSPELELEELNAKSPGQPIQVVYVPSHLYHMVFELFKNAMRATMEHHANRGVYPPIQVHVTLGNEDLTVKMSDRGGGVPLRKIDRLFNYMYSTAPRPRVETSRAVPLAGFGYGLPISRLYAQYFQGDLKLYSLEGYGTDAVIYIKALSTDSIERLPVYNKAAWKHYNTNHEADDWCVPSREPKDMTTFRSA
UniProt O15530: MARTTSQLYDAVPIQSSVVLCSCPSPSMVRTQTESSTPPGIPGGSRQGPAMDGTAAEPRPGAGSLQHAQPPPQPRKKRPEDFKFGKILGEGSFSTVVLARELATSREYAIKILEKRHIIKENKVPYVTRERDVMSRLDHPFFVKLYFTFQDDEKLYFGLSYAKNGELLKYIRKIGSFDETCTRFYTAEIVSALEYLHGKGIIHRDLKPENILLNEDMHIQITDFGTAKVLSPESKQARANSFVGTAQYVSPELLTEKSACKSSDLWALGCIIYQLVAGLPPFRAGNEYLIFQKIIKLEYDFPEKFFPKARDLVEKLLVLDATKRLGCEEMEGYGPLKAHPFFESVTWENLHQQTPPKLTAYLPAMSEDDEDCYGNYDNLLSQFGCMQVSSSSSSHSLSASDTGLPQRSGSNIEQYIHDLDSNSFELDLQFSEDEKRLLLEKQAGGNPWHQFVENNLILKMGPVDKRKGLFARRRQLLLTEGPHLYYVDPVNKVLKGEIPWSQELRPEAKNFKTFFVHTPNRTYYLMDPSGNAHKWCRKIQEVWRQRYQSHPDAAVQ
UniProt P42356, whole entry, looked up: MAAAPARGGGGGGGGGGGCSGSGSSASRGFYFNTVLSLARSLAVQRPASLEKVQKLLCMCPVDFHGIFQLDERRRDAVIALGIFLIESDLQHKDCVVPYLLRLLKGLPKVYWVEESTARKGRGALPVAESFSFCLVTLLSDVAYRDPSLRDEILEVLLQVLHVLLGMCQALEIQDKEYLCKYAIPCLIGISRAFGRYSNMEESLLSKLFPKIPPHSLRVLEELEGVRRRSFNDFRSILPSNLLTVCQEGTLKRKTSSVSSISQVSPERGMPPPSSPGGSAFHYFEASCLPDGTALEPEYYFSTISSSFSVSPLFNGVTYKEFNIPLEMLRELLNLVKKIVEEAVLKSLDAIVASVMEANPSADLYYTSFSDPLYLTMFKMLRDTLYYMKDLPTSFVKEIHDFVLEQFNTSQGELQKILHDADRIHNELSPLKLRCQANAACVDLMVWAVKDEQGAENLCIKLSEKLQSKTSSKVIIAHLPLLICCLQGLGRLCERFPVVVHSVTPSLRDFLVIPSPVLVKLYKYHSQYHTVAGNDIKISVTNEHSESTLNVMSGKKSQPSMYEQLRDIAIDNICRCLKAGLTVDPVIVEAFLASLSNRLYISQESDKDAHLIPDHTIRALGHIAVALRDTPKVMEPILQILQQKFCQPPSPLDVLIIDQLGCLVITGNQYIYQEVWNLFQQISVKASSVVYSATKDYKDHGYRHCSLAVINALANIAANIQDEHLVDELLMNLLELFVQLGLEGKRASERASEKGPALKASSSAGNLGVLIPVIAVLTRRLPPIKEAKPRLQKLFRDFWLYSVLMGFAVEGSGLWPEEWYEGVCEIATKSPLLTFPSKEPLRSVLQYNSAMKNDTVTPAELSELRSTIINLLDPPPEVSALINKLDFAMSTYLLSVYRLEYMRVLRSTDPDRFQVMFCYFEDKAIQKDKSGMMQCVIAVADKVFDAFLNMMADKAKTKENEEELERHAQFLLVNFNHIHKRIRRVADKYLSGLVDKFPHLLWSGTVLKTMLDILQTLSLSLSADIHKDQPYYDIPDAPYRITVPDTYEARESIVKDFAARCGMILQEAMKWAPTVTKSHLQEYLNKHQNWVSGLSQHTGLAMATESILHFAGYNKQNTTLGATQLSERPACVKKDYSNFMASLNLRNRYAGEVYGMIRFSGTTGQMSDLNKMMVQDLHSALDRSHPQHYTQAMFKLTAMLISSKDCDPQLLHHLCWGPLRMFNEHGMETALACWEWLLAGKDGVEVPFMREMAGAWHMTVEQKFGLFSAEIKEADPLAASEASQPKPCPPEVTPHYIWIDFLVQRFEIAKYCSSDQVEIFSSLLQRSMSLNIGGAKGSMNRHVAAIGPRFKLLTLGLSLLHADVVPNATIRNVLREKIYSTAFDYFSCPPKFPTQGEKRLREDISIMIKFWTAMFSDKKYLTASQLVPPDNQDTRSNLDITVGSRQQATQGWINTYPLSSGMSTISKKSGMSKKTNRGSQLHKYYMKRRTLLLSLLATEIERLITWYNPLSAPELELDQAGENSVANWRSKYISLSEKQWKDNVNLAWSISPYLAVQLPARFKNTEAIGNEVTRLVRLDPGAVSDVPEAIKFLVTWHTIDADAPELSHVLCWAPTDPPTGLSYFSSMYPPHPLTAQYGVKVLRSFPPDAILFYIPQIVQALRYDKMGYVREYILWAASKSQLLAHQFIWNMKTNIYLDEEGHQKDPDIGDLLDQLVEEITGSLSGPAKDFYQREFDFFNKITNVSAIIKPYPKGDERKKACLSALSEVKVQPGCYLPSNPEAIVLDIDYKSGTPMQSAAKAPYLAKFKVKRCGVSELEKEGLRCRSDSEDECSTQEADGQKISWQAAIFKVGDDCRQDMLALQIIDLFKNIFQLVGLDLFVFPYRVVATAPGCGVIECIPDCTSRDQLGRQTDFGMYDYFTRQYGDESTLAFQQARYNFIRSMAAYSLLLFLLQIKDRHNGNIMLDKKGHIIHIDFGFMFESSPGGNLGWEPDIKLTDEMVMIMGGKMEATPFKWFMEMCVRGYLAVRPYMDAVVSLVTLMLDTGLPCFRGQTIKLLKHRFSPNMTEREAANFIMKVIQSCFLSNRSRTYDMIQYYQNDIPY
UniProt Q9UBF8: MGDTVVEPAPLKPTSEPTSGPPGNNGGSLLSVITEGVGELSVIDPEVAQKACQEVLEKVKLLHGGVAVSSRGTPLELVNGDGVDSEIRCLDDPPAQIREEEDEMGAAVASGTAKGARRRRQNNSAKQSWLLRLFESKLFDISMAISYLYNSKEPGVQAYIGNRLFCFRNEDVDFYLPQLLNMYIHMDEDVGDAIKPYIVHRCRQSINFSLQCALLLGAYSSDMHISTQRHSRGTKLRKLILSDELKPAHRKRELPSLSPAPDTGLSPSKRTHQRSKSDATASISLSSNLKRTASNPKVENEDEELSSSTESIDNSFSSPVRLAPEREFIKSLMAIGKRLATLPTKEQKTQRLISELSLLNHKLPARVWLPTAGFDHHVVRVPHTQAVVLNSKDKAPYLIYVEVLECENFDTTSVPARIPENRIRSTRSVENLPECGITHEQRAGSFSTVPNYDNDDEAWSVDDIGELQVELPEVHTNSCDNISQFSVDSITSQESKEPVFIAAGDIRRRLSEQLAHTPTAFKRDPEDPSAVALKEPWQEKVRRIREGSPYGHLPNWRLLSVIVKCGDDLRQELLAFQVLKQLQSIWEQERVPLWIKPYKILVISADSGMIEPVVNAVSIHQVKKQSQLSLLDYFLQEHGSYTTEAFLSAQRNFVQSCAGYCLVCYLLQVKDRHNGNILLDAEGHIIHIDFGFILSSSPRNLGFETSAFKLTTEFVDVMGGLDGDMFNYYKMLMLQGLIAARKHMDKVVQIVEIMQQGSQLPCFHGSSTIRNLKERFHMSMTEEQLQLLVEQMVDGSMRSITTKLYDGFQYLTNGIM
UniProt P53350, whole entry: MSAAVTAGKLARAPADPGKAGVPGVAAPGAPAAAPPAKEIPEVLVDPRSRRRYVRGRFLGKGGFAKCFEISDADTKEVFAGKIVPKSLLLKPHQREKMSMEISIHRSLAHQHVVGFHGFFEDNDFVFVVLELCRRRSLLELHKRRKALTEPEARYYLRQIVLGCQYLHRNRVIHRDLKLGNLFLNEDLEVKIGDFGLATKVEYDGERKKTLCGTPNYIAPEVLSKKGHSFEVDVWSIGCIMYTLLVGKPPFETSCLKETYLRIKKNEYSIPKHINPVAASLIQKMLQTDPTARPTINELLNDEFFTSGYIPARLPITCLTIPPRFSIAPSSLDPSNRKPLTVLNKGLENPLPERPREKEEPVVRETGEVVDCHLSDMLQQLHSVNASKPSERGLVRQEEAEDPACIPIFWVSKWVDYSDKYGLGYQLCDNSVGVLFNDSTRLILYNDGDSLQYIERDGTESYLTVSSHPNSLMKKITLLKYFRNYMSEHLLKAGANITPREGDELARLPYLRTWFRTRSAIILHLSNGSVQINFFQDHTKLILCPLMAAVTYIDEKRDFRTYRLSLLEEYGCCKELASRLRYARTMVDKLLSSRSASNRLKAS
UniProt Q13131: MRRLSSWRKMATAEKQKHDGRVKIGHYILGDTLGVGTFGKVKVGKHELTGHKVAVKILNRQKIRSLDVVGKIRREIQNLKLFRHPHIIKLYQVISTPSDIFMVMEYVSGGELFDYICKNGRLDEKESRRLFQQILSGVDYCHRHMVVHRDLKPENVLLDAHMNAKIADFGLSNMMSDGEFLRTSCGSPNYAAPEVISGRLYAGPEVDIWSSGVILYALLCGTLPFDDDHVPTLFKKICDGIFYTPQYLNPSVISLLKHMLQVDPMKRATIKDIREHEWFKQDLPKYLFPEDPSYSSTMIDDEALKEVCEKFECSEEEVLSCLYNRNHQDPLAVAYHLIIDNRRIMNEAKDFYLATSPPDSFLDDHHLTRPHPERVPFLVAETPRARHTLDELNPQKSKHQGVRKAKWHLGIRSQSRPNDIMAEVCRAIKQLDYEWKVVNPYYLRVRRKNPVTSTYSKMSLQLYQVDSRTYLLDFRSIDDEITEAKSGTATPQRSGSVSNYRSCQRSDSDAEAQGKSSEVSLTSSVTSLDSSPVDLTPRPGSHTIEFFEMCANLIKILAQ

Tests used:
Test in all cases: number of time points (of 5) at which kinase-Nluc abundance scored as decreased, DMSO-normalised (count); higher = more persistent destabilization
Details in all cases: K562; 2-18 h
NTRK3 = NTRK3 (UniProt Q16288)
PAK4 = PAK4 (UniProt O96013)
PBK = PBK (UniProt Q96KB5)
PDGFRB = PDGFRB (UniProt P09619)
PDK1 = PDK1 (UniProt Q15118)
PDPK1 = PDPK1 (UniProt O15530)
PIK4CA = PIK4CA (UniProt P42356)
PIK4CB = PIK4CB (UniProt Q9UBF8)
PLK1 = PLK1 (UniProt P53350)
PRKAA1 = PRKAA1 (UniProt Q13131)

Measured: number of time points

Cc1cc(Nc2ncnc3ccc(NC4=NC(C)(C)CO4)cc23)ccc1Oc1ccn2ncnc2c1 [Tucatinib] (2.5 µM)
0: all assays above

CN1CCN(c2cccc(Nc3nc4c(-c5ccc(S(C)(=O)=O)cc5)cccn4n3)c2)CC1 (10 µM)
0: all assays above

O=C(CSC1=NCCN1)NC1CCCCCC1 [ICCB-19 (hydrochloride)] (2.5 µM)
0: all assays above

O=C([O-])c1cc2ccccc2c(Cc2c(O)c(C(=O)[O-])cc3ccccc23)c1O.[Na+].[Na+] [Pamoic acid (disodium)] (10 µM)
0: all assays above

C[C@@]1(c2ncncc2F)NC(=O)c2cc(-c3cn[nH]c3)ccc21 (10 µM)
0: all assays above

COc1cc(Nc2ncc(F)c(Nc3ccc4c(n3)NC(=O)C(C)(C)O4)n2)cc(OC)c1OC [R406 (free base)] (10 µM)
not listed: NTRK3
0: all other assays above

Cc1c(NC(=O)c2cccn(-c3ccc(F)cc3)c2=O)ccc(Oc2ccnc(NC(=O)C3CC3)c2)c1C (2 µM)
1: NTRK3 | PLK1
4: PDPK1
3: PDGFRB
0: all other assays above

CC1CCc2c(cc(Br)c(F)c2Br)N1C=O (stereo not drawn) (10 µM)
0: all assays above

Cc1ccc2nc(NCCN)c3ncc(C)n3c2c1 (2.5 µM)
not listed: PDPK1
0: all other assays above

C[C@@H]1CCN(C(=O)CC#N)C[C@@H]1N(C)c1ncnc2[nH]ccc12 [Tofacitinib (citrate)] (10 µM)
not listed: PDGFRB
0: all other assays above

Cc1ccc2cc(-c3c(C)ccc(C(=O)c4c(-c5ccccc5)n(C)n(-c5ccccc5)c4=O)c3N)ccc2n1 (2.5 µM)
0: all assays above

CN1C(=O)N[C@H](Cc2c[nH]c3c(Cl)cccc23)C1=O [Necrostatin 2] (10 µM)
0: all assays above

COc1cc(/C=C/C(=O)NCC(O)c2ccc(O)cc2)ccc1O (stereo not drawn) [N-Feruloyloctopamine] (2.5 µM)
0: all assays above

Nc1ccc(-c2cnc(N)c(-c3ccc(Cl)cc3)c2)cn1 (10 µM)
0: all assays above

CCNc1nc(Nc2cc(F)c(C(=O)N3CCOCC3)cc2OC)ncc1C(F)(F)F [GNE-7915 (tosylate)] (10 µM)
0: all assays above

O=c1cc(CN2CCOCC2)occ1OCCCCCSc1ccnc2cc(C(F)(F)F)ccc12 (10 µM)
0: all assays above

COc1cccc(OC)c1C(=O)OCc1cc(O)ccc1O[C@@H]1O[C@H](CO)[C@@H](O)[C@H](O)[C@H]1O [Curculigoside] (10 µM)
0: all assays above

O=C(O)CCC(=O)Nc1ccc(Br)cn1 [Bikinin] (10 µM)
0: all assays above

O=C(NOCC(O)CO)c1cc(Br)c(F)c(F)c1Nc1ccc(I)cc1F (stereo not drawn) (2.5 µM)
0: all assays above

Cc1cc(CN2CCN(c3c(Br)cnc4nc(-c5ccc(N6CCN(C)CC6)cc5)[nH]c34)CC2)no1 (2.5 µM)
0: all assays above

COc1cc2c(N3CCN(C(=O)Nc4ccc(OC(C)C)cc4)CC3)ncnc2cc1OCCCN1CCCCC1 [Tandutinib] (10 µM)
not listed: NTRK3 | PDGFRB
0: all other assays above

COc1cc(Nc2ncc(F)c(Nc3ccc4c(n3)NC(=O)C(C)(C)O4)n2)cc(OC)c1OC (10 µM)
not listed: NTRK3
0: all other assays above

O=Nc1c(-c2c(O)[nH]c3ccc(I)cc23)[nH]c2ccccc12 [5-Iodo-indirubin-3'-monoxime] (10 µM)
0: all assays above

C=CC(=O)Nc1cccc(Nc2nc(Nc3ccc(N4CCN(C(C)=O)CC4)cc3OC)ncc2C(F)(F)F)c1 [Rociletinib hydrobromide] (10 µM)
0: all assays above

COc1ccc2c(OCc3nnc4ccc(-c5ccccc5)nn34)ccnc2c1 (2 µM)
0: all assays above

C[C@@H]1CCN(C(=O)CC#N)C[C@@H]1N(C)c1ncnc2[nH]ccc12 [Tofacitinib] (10 µM)
not listed: PDGFRB
0: all other assays above

CCN1CCN(Cc2ccc(Nc3ncc(F)c(-c4cc(F)c5nc(C)n(C(C)C)c5c4)n3)nc2)CC1 [Abemaciclib] (2 µM)
0: all assays above

CNc1nc(Nc2ccc(C(=O)N3CCOCC3)cc2OC)nc2[nH]cc(Cl)c12 (2.5 µM)
0: all assays above

CS(=O)(=O)Nc1cc(-c2ccc3ncnc(Nc4ccc(F)c(Cl)c4)c3c2)cnc1Cl (2.5 µM)
2: PDGFRB | PDPK1 | PIK4CB
0: all other assays above

CC(C)(O)CNc1ncc(-c2ccnc(Nc3ccnc(Cl)c3)n2)c(CC2CC2)n1 (2.5 µM)
0: all assays above

S=C(SSC(=S)N1CCOCC1)N1CCOCC1 (10 µM)
3: PDPK1 | PIK4CB
0: all other assays above

CCc1cc2c(cc1N1CCC(N3CCOCC3)CC1)C(C)(C)c1[nH]c3cc(C#N)ccc3c1C2=O [Alectinib] (10 µM)
0: all assays above

NS(=O)(=O)c1ccc(-n2nc(C(F)(F)F)cc2-c2ccc(Cl)cc2)cc1 (10 µM)
0: all assays above
